Measurements reported in PubChem BioAssay AID720505 (Drosophila RNAi Screening Center, 2013).
Assay: 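Fly regulators or components of the CRAC channel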 (primary screen). Cells: Drosophila S2R+ cells. Reagents: long dsRNA against Drosophila genes. Conditions: thapsigargin (2 µM) in calcium-free buffer to empty internal stores, then 2 mM calcium added back. Measurement: 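Fluo-4 signal in 384-well plates read on a FLIPR after thapsigargin (2 µM, calcium-free) store depletion and 2 mM calcium add-back; unnormalised mean endpoint per well; screen run twice, selected wells retested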. Scale: calcium signal and retest calcium signal: higher = more calcium entry after store depletion. Active means: 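Knock-downs counted as hits when calcium entry dropped relative to STIM1 positive and Rho1 negative controls present on each plate; roughly 1500 genes called, with reductions of differing size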. Calls: active = called as lowering calcium entry; inactive = not called.
The deposit covers about 20,000 reagents; below is a random part of those that have a named target and a result. In the full data, about 2,100 (10%) were called active. 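Raw plate signals without normalisation; calls rest on control-based scores that were not deposited; replicate 2 separates called from uncalled poorly.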 Entries without a mark were called inactive. Names joined by + are all predicted targets of the reagent. Reagent sequences are not shown. Not given: the amount of reagent, the time to read-out.

| gene | dsRNA | calcium signal, replicate 1 | calcium signal, replicate 2 | retest calcium signal, replicate 1 | retest calcium signal, replicate 2 |
| --- | --- | --- | --- | --- | --- |
| CG2209 (GeneID 32250) | DRSC19843 | 133 | 114 | – | – |
| x16 (GeneID 33967) | DRSC00960 | 69.2 | 135 | – | – |
| x16 (GeneID 33967) | DRSC03638 | 97.3 | 155 | – | – |
| Cyp313a5 (GeneID 41486) | DRSC16628 | 113 | 98.2 | – | – |
| Vps53 (GeneID 33640) | DRSC00595 | 146 | 294 | – | – |
| CG16985 (GeneID 38323) | DRSC08501 | 67.7 | 72.3 | – | – |
| IntS8 (GeneID 36886) | DRSC07417 | 126 | 100 | – | – |
| CG30050 (GeneID 246417) | DRSC05342 | 104 | 101 | – | – |
| Ugalt (GeneID 31255) | DRSC18467 | 127 | 135 | – | – |
| a10 (GeneID 39906) | DRSC11319 | 82.4 | 166 | – | – |
| AP-2alpha (GeneID 33211) | DRSC00800 | 164 | 129 | – | – |
| Setd3 (GeneID 31638) | DRSC17840 | 222 | 95.7 | – | – |
| Setd3 (GeneID 31638) | DRSC18269 | 266 | 139 | – | – |
| CG13445 (GeneID 39719) | DRSC09992 | 130 | 194 | – | – |
| CG13000 (GeneID 32685) | DRSC19519 | 94.9 | 130 | – | – |
| CG34325 (GeneID 32656) | DRSC19802 | 88.8 | 137 | – | – |
| CG34325 (GeneID 32656) | DRSC20200 | 100 | 155 | – | – |
| Cyp4d2 (GeneID 31192) | DRSC18458 | 130 | 175 | – | – |
| CG13928 (GeneID 38195) | DRSC08397 | 92.4 | 146 | – | – |
| CG11694 (GeneID 40985) | DRSC14354 | 80.1 | 140 | – | – |
| Gyg (GeneID 37419) | DRSC03850 | 76.1 | 7240 | – | – |
| Gyg (GeneID 37419) | DRSC04556 | 63 (active) | 121 | – | – |
| tral (GeneID 39430) | DRSC09779 | 124 | 73 | – | – |
| Hr39 (GeneID 35398) | DRSC03346 | 156 | 134 | – | – |
| CG32591 (GeneID 318104) | DRSC19063 | 87 | 119 | – | – |
| CG11808 (GeneID 36687) | DRSC06088 | 107 | 104 | – | – |
| Sugb (GeneID 39314) | DRSC10815 | 126 | 126 | – | – |
| soti (GeneID 41748) | DRSC16432 | 121 | 197 | – | – |
| CG31100 (GeneID 41075) | DRSC14453 | 115 | 162 | – | – |
| CG31100 (GeneID 41075) | DRSC14455 | 78.4 | 153 | – | – |
| caps (GeneID 39493) | DRSC11333 | 108 | 92 | – | – |
| caps (GeneID 39493) | DRSC22224 | 49.6 (active) | 156 | – | – |
| Swip-1 (GeneID 35158) | DRSC02083 | 106 | 86.5 | – | – |
| Swip-1 (GeneID 35158) | DRSC02084 | 98.7 | 88.3 | – | – |
| NT5E-2 (GeneID 246458) | DRSC06893 | 126 | 130 | – | – |
| LKRSDH (GeneID 34064) | DRSC03015 | 115 | 181 | – | – |
| CG10444 (GeneID 37294) | DRSC05990 | 184 | 85.7 | – | – |
| CG33062 (GeneID 318840) | DRSC22195 | 138 | 211 | – | – |
| Cyp310a1 (GeneID 35115) | DRSC03301 | 90.8 | 111 | – | – |
| CG11374 (GeneID 33163) | DRSC00306 | 139 | 142 | – | – |
| prt (GeneID 117368) | DRSC16894 | 150 | 89.5 | – | – |
| Fbxl7 (GeneID 41935) | DRSC15553 | 196 | 205 | – | – |
| CG13042 (GeneID 39798) | DRSC09923 | 75.8 | 87.7 | – | – |
| grass (GeneID 43273) | DRSC15911 | 152 | 183 | – | – |
| Shawn + Tyler | DRSC19564 | 102 | 89.3 | – | – |
| Shawn + Tyler | DRSC19565 | 73.5 (active) | 166 | – | – |
| Ran (GeneID 44072) | DRSC20364 | 40 (active) | 29.6 | – | – |
| CG30270 (GeneID 251324) | DRSC22890 | 106 | 174 | – | – |
| Prosbeta4 (GeneID 34999) | DRSC02603 | 48.3 (active) | 98.8 | – | – |
| CG18810 (GeneID 59171) | DRSC02701 | 176 | 106 | – | – |
| CG43338 (GeneID 35117) | DRSC22055 | 78.1 | 197 | – | – |
| brv2 (GeneID 39932) | DRSC10226 | 71.7 | 143 | – | – |
| ValRS (GeneID 45783) | DRSC06864 | 164 | 144 | – | – |
| Osi22 (GeneID 41632) | DRSC16442 | 124 | 128 | – | – |
| CG17287 (GeneID 36939) | DRSC06659 | 165 | 111 | – | – |
| SecS (GeneID 40681) | DRSC12222 | 121 | 230 | – | – |
| PolD1 (GeneID 39746) | DRSC11138 | 98.2 | 148 | – | – |
| CG10321 (GeneID 37464) | DRSC04061 | 94.5 | 130 | – | – |
| lncRNA:CR43493 + l(1)G0196 | DRSC20628 | 165 | 117 | – | – |

An excerpt from above, reduced to “calcium signal, replicate 2”:
Cyp310a1 (GeneID 35115) [DRSC03301]	111
CG11374 (GeneID 33163) [DRSC00306]	142
prt (GeneID 117368) [DRSC16894]	89.5
Fbxl7 (GeneID 41935) [DRSC15553]	205
CG13042 (GeneID 39798) [DRSC09923]	87.7
grass (GeneID 43273) [DRSC15911]	183
Shawn + Tyler [DRSC19564]	89.3
Shawn + Tyler [DRSC19565]	166 (active)
Ran (GeneID 44072) [DRSC20364]	29.6 (active)
CG30270 (GeneID 251324) [DRSC22890]	174
Prosbeta4 (GeneID 34999) [DRSC02603]	98.8 (active)
CG18810 (GeneID 59171) [DRSC02701]	106
CG43338 (GeneID 35117) [DRSC22055]	197
brv2 (GeneID 39932) [DRSC10226]	143
ValRS (GeneID 45783) [DRSC06864]	144
Osi22 (GeneID 41632) [DRSC16442]	128
CG17287 (GeneID 36939) [DRSC06659]	111

Next results follow.
| gene | dsRNA | calcium signal, replicate 1 | calcium signal, replicate 2 | retest calcium signal, replicate 1 | retest calcium signal, replicate 2 |
| --- | --- | --- | --- | --- | --- |
| CG4927 (GeneID 36852) | DRSC06903 | 153 | 128 | – | – |
| CG13359 (GeneID 31028) | DRSC18539 | 96.9 | 130 | – | – |
| Ric (GeneID 36776) | DRSC07532 | 137 | 82.6 | – | – |
| lute (GeneID 42089) | DRSC14812 | 133 | 144 | – | – |
| lute (GeneID 42089) | DRSC15769 | 176 | 218 | – | – |
| CG34266 (GeneID 5740465) | DRSC08323 | 91.7 | 77.3 | – | – |
| CG9016 (GeneID 33822) | DRSC03127 | 230 | 105 | – | – |
| CG4619 (GeneID 34321) | DRSC02764 | 87.4 | 103 | – | – |
| Cyp28a5 (GeneID 34817) | DRSC03297 | 73.1 | 135 | – | – |
| c(3)G (GeneID 47765) | DRSC15245 | 113 | 196 | – | – |
| MESK2 (GeneID 37451) | DRSC04258 | 158 | 121 | – | – |
| fln (GeneID 40185) | DRSC11346 | 118 | 112 | – | – |
| CG4658 (GeneID 34325) | DRSC02768 | 207 | 154 | – | – |
| CG9961 (GeneID 33459) | DRSC00738 | 145 | 117 | – | – |
| CG9961 (GeneID 33459) | DRSC23343 | 102 | 115 | – | – |
| CG14247 (GeneID 43221) | DRSC14742 | 135 | 96.1 | – | – |
| Obp58c (GeneID 37608) | DRSC04166 | 195 | 214 | – | – |
| Ktl (GeneID 42475) | DRSC14270 | 186 | 267 | – | – |
| BthD (GeneID 32317) | DRSC19395 | 69.7 (active) | 97.8 | – | – |
| List (GeneID 37157) | DRSC06520 | 178 | 110 | – | – |
| mdlc (GeneID 42397) | DRSC15690 | 187 | 290 | – | – |
| Syp (GeneID 42460) | DRSC15286 | 142 | 353 | – | – |
| IKKbeta (GeneID 44432) | DRSC16714 | 152 | 160 | – | – |
| Alg3 (GeneID 37754) | DRSC04700 | 134 | 95.8 | – | – |
| lncRNA:CR34047 (GeneID 12798361) | DRSC07857 | 5604 | 131 | – | – |
| lncRNA:CR34047 (GeneID 12798361) | DRSC21689 | 115 | 111 | – | – |
| Lap1 (GeneID 36670) | DRSC07454 | 114 | 166 | – | – |
| CG8229 + CG33199 | DRSC05134 | 66.6 (active) | 84.5 | – | – |
| Sk1 (GeneID 32089) | DRSC19774 | 69.6 | 79.8 | – | – |
| PGAP1 (GeneID 31487) | DRSC18286 | 81.8 | 91.3 | – | – |
| CG18335 (GeneID 36202) | DRSC06723 | 101 | 176 | – | – |
| CG4613 (GeneID 39586) | DRSC10435 | 119 | 138 | – | – |
| CG33460 (GeneID 3885588) | DRSC05570 | 106 | 130 | – | – |
| NAAT1 (GeneID 31457) | DRSC18300 | 117 | 91.2 | – | – |
| CG13064 (GeneID 2768963) | DRSC09947 | 113 | 115 | – | – |
| CG17266 (GeneID 35571) | DRSC04979 | 147 | 129 | – | – |
| CG17266 (GeneID 35571) | DRSC22368 | 80.4 | 220 | – | – |
| ECSIT (GeneID 40732) | DRSC12348 | 130 | 175 | – | – |
| HLH4C (GeneID 31397) | DRSC18670 | 225 | 120 | 8186 | 183 |
| HLH4C (GeneID 31397) | DRSC21322 | 76.5 | 89 | – | – |
| CG6675 (GeneID 35439) | DRSC03735 | 122 | 91.9 | – | – |
| lin-52 (GeneID 31499) | DRSC18106 | 217 | 142 | – | – |
| Eig71Ee (GeneID 39706) | DRSC11152 | 66.3 | 159 | – | – |
| lky (GeneID 33006) | DRSC20682 | 73.8 (active) | 149 | – | – |
| Galphaf (GeneID 39861) | DRSC11171 | 87.5 | 161 | – | – |
| smog (GeneID 33690) | DRSC00334 | 121 | 91 | – | – |
| smog (GeneID 33690) | DRSC00335 | 143 | 110 | – | – |
| smog (GeneID 33690) | DRSC23053 | 99.8 | 123 | – | – |
